Source: PubChem BioAssay AID1671190 (National Center for Advancing Translational Sciences (NCATS), 2021)
Screen size: about 580,000 compounds; about 6,100 (1.1%) were called active. This list was built around the results that the source calls inconclusive (neither active nor inactive); the mix of calls is not that of the screen. The call rests on the fitted dose curve; in most records, active means well fitted inhibition curve with a large enough effect; inconclusive means small, poorly fitted or top-dose-only effect, or another doubt; inactive means no such curve, though single readings can be large or run the other way. Where the call is inconclusive, the potency comes from a doubtful curve fit.
On the % scale 0 is the no-effect control and ±100 the full control effect; potency means the concentration at half of the fitted maximal effect.

Chains of the proteins cited; added tags and fusions are not shown. Lines headed by an entry give the natural chain unless they say otherwise; changes in a name come on top.
UniProt P18054: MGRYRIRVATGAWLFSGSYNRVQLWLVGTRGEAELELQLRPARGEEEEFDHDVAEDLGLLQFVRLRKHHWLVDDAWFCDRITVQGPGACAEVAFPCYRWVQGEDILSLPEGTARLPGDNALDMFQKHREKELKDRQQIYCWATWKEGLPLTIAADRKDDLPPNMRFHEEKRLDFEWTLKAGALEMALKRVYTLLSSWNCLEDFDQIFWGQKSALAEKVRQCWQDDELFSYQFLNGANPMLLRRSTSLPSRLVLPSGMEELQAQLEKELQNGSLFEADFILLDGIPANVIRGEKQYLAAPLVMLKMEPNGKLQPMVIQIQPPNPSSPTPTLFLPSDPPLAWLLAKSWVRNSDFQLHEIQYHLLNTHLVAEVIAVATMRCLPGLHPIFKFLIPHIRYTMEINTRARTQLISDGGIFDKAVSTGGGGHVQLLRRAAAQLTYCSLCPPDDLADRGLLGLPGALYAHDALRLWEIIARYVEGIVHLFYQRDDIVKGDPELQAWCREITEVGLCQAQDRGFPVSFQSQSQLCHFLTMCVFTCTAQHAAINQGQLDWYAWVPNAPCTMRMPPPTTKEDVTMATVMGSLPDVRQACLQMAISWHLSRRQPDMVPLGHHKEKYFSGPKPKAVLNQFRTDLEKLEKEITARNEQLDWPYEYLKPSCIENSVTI

These compounds were tested against Polyunsaturated fatty acid lipoxygenase ALOX12 (Homo sapiens) (UniProt P18054) (assay: Primary qHTS assay for inhibitors of human arachidonate 12S-lipoxygenase (ALOX12): Round 2). Conditions: purified 12hLO, xylenol orange hydroperoxide absorbance; activity change, negative = inhibition: at 108 µM (top of the series) unless noted.
In short: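 Hydroperoxide product was detected by ferrous iron/xylenol orange as the 573 to 405 nm absorbance ratio. Arachidonic acid at 40 uM (final) was turned over for 30 min at room temperature by 150 nM human 12hLO, pH 7.0 Hepes buffer, after 15 min compound preincubation.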
In the case of `Cc1sc2cc3c(c(C(=O)c4ccccc4)[n+]2c1C)-c1cccc2cccc-3c12`, the Potency is reported as inconclusive: 63.1 µM [inhibitor, partial curve, poor fit].
With `Cc1cccc(OCCN(C)C(=O)COc2ccc3c(C)cc(=O)oc3c2)c1` the Potency was inconclusive: 50.1 µM [inhibitor, single point].
For `COCCCNC(=O)CS(=O)Cc1nc(-c2ccc(OC)cc2)oc1C` (stereo not given), the Potency was “inactive”.
With `COc1ccc(-c2c(-c3ccc(C#N)cc3)oc(=O)c3cc(OC)c(OC)cc23)cc1` the Potency was inconclusive: 44.7 µM [inhibitor, partial curve, poor fit].
In the case of `CC1CCCCN1CCNC(=O)C12CC3CC(CC(C3)C1)C2` (stereo not given), the Potency is reported as “inactive”.
For `Cc1noc2nc(C(C)C)cc(C(=O)NC3CCCc4c3[nH]c3ccccc43)c12` (stereo not given), the Potency was active: 31.6 µM.
In the case of `C/C(=C\C(=O)c1ccccc1)C(=O)c1ccc(Br)cc1`, the Potency is reported as inconclusive: 8.91 µM [inhibitor, full curve, poor fit].
For `Cc1noc(C)c1C(=O)N1Cc2ccccc2CC2(CCCN2C)C1` (stereo not given), the Potency was inconclusive: 100 µM [inhibitor, partial curve, poor fit].
In the case of `O=C1N=C(c2ccccc2)S/C1=C\c1cccs1`, the Potency is reported as inconclusive: 1.78 µM [inhibitor, full curve, poor fit].
In the case of `COc1ccccc1N1CCN(c2ccc(=O)n(CC(=O)Nc3ccc(F)c(F)c3)n2)CC1`, the activity change, negative = inhibition is reported as inconclusive: -34.5% [inhibitor].
`CCOC(=O)C1CCN(c2nc(N)c3c(N)nc(SCC(=O)O)cc3c2C#N)CC1` was tested, and the Potency was inconclusive: 39.8 µM [inhibitor, partial curve, poor fit].
In the case of `Cc1ccc(Nc2nc(N)c(C(=O)c3cc(C)ccc3C)s2)cc1`, the Potency is reported as inconclusive: 44.7 µM [inhibitor, partial curve, poor fit].
For `CC(=O)C1=C(C)Nc2cc(C(F)(F)F)ccc2S1`, the Potency was inconclusive: 50.1 µM [inhibitor, partial curve, poor fit].
With `Cc1ccc(S(=O)(=O)CCC(=O)N2CCN(c3ccc(Cl)cc3)CC2)cc1` the Potency was inconclusive: 56.2 µM [inhibitor, partial curve, poor fit].
For `COc1ccc(NC(=O)Cc2cnc(-n3cccc3)s2)cc1`, the Potency was “inactive”.
With `Cc1ccc(C)c(OCCC(=O)OCC(=O)N2c3ccccc3NC(=O)C2(C)C)c1` the Potency was inconclusive: 44.7 µM [inhibitor, partial curve, poor fit].
For `Cc1cc(C(=O)COC(=O)CC(NC(N)=O)c2ccc(Cl)cc2)c(C)n1C` (stereo not given), the Potency was inconclusive: 100 µM [inhibitor, single point].
`CCc1nnc(NS(=O)(=O)c2ccc(NC(=S)NC(=O)c3ccc(OC)c(OC)c3)cc2)s1` was tested, and the Potency was active: 8.91 µM.
In the case of `COc1cc(CN2C[C@@H](CO)O[C@@H](n3cnc4c(N5CCN(c6ccccc6)CC5)ncnc43)C2)cc(OC)c1OC`, the Potency is reported as “inactive”.
For `Cc1ccc(NC(=S)NNC(=O)Nc2ccc(Cl)cc2)cc1`, the Potency was inconclusive: 0.447 µM [inhibitor, full curve, poor fit].
In the case of `CCn1c(CC(=O)Nc2ccccc2)n[nH]c1=S`, the Potency is reported as inconclusive: 89.1 µM [inhibitor, single point].
For `COc1ccccc1CCNC(=O)Cc1c(C)c2cc3c(C(C)(C)C)coc3c(C)c2oc1=O`, the Potency was “inactive”.
With `COC(=O)C(c1ccc(Br)cc1)(c1cn(C)c2ccccc12)C(Nc1ccccc1)c1ccccc1` (stereo not given) the Potency was “inactive”.
`COc1ccccc1CNc1nc(-c2ccc(C)cc2)cs1` was tested, and the Potency was inconclusive: 89.1 µM [inhibitor, partial curve, poor fit].
`CCCc1c(O)nc(SC2CC(=O)N(c3ccc(OC)cc3)C2=O)[nH]c1=O` (stereo not given) was tested, and the Potency was inconclusive: 112 µM [inhibitor, single point].
`COc1ccc(Oc2coc3cc(OC(=O)c4cccc(Cl)c4)ccc3c2=O)cc1` was tested, and the Potency was “inactive”.
In the case of `COCC(=O)N[C@H]1C[C@H]2C(=O)NC[C@@H](CCC(=O)N3CCN(c4ccccc4)CC3)N2C1`, the Potency is reported as inconclusive: 11.2 µM [inhibitor, partial curve, poor fit].
In the case of `CC(C)Oc1ccc(CNC(=O)Nc2ccc3c(c2)N(C)C(=O)c2ccccc2S3)cc1`, the Potency is reported as inconclusive: 100 µM [inhibitor, partial curve, poor fit].
For `CCS(=O)c1ccccc1C(=O)O` (stereo not given), the Potency was “inactive”.
`Cc1ccc(S(=O)(=O)CNC(=S)c2ccc3ccccc3c2)cc1` was tested, and the Potency was inconclusive: 6.31 µM [inhibitor, full curve, poor fit].
`CCOC(=O)[C@H]1[C@H]2COc3cc(OC)ccc3[C@@H]2N2C(=O)CN(CC3CCCO3)C(=O)[C@@]12C` (stereo not given in full) was tested, and the Potency was inconclusive: 63.1 µM [inhibitor, partial curve, poor fit].
For `CCCc1cc(=O)oc2cc(C)cc(OC(C)C(=O)NCCN3CCOCC3)c12` (stereo not given), the Potency was inconclusive: 100 µM [inhibitor, single point].
For `Cc1ccc(S(=O)(=O)N2CCN(CCNC(=O)COc3ccc(C(C)C)cc3)CC2)cc1`, the Potency was inconclusive: 17.8 µM [inhibitor, full curve, poor fit].
In the case of `Cc1nc(NC(=O)c2ccccc2)sc1-c1csc(Nc2cccc(Br)c2)n1`, the Potency is reported as inconclusive: 44.7 µM [inhibitor, partial curve, poor fit].
`O=C(COC(=O)C1COc2ccccc2O1)Nc1ccc(Cl)cc1` (stereo not given) was tested, and the Potency was inconclusive: 89.1 µM [inhibitor, single point].
In the case of `COc1cccc(/C(O)=C2/C(=O)C(=O)N(c3ccccn3)C2c2ccc(OC)c(OC)c2)c1` (stereo not given), the Potency is reported as inconclusive: 4.47 µM [inhibitor, full curve, poor fit].
In the case of `Cc1c(C(=O)N/N=C/c2cccs2)nnn1-c1nonc1N`, the Potency is reported as “inactive”.
For `Cc1ccc(S(=O)(=O)Nc2cnc3ccccc3c2)cc1`, the Potency was inconclusive: 100 µM [inhibitor, single point].
In the case of `CCOc1ccc(C2C3=C(Nc4nc(N)[nH]c(=O)c42)c2ccccc2C3=O)cc1` (stereo not given), the Potency is reported as inconclusive: 112 µM [inhibitor, single point].
`COc1ccc2c(C)c(CCC(=O)Nc3ccc(F)c(F)c3)c(=O)oc2c1` was tested, and the Potency was “inactive”.
